# Measured values as given in US20050250853A1, “Beta-tubulin inhibitors” (priority 1999, published 2005).
# Key:
# Format in all cases: cell-based, Chinese hamster
# [1] = test system: CHO 10001 cells (wild-type); experiment: MTT cytotoxicity on wild-type CHO cells; conditions: Cricetulus griseus, CHO10001, 120 h, read-out: IC50 CHO 10001
# Procedure: (§1) Human breast carcinoma cell line, MDA-MB-231, was obtained from the American Type Culture Collection (ATCC HTB-26; Bethesda, Md.). MDA-MB-231 cells were grown in RPMI 1640 medium supplemented with 10% bovine calf serum (Hyclone, Road Logan, Utah). […] These cells were cultured in RPMI 1640 containing 10% fetal bovine serum. SK—N—SH human neuroblastoma cells, (ATCC HTB-11; Bethesda, Md.) were cultured in MEM medium supplemented with 2 mM L-glutamine, 1.5 g/liter sodium bicarbonate, 0.1 mM non-essential amino acids, 1 mM sodium pyruvate and 10% fetal bovine serum. Cells were cultured in a humidified atmosphere at 37° C. in 5% CO2.
# (§2) Cytotoxicity was assessed using the MTT assay (3-(4,5-dimethylthiazol-2-yl)-2,5-diphenyltetrazolium bromide) as described by Carmichael et al. (12).
# (§3) The cytotoxicity of 4-tBCEU, 4-iPCEU and 4-sBCEU in two CHO cell lines having differential sensitivity to antmicrotubule agents was evaluated. These cell lines are derived from parental CHO-10001 cells and express mutated tubulins.
# CHO VV 3-2 cells = experiment: MTT cytotoxicity on vinblastine- and colchicine-resistant CHO cells expressing mutated tubulin; conditions: Cricetulus griseus, CHO-VV 3-2, 120 h, read-out: IC50 CHO VV 3-2
# Procedure: as §1, §2, §3
# CHO TAX 5-6 cells = experiment: MTT cytotoxicity on taxol-resistant CHO cells expressing mutated tubulin; conditions: Cricetulus griseus, CHO-TAX 5-6, 120 h, read-out: IC50 CHO TAX 5-6
# Procedure: as §1, §2, §3
smiles,measurement,setting,value
"COc1cc2c(c(OC)c1OC)-c1ccc(OC)c(=O)cc1[C@@H](NC(C)=O)CC2 [Colchicine, reference compound]",IC50,[1],2 ± 0.3 nM
same,IC50,CHO VV 3-2 cells,3.6 ± 0.6 nM
same,IC50,CHO TAX 5-6 cells,0.6 ± 0.01 nM
